# Assay results taken from PubChem BioAssay AID1671190 (National Center for Advancing Translational Sciences (NCATS), 2021).
# By UniProt entry, the sequences of proteins in these tests, tags left out. Where a name states a change or a piece, a line headed by the entry shows the natural chain unless it says otherwise.
# UniProt P18054: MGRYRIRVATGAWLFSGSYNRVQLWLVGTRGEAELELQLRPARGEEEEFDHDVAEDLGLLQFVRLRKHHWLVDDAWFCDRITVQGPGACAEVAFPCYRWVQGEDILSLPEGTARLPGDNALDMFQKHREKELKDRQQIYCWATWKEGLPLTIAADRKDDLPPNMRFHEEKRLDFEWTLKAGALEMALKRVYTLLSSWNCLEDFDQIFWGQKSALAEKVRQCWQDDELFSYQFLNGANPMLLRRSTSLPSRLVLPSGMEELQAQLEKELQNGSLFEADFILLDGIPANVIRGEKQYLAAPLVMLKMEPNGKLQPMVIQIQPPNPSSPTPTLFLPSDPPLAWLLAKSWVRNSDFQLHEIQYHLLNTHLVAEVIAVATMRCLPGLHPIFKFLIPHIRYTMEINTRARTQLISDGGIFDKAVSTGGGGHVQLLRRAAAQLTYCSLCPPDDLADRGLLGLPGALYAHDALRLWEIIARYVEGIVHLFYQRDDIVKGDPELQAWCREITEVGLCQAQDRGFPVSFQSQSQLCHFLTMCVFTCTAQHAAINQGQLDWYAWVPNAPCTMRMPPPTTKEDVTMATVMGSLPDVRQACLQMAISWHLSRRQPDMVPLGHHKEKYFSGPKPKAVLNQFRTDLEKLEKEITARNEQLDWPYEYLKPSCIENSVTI
# Screen size: about 580,000 compounds; about 6,100 (1.1%) were called active. Inconclusive means that the source gave no clear call. Such entries were picked first, then a sample of the others. The call rests on the fitted dose curve; in most records, active means well fitted inhibition curve with a large enough effect; inconclusive means small, poorly fitted or top-dose-only effect, or another doubt; inactive means no such curve, though single readings can be large or run the other way. Potencies beside an inconclusive call are fits to weak or partial responses and may not hold up.
# Target: Polyunsaturated fatty acid lipoxygenase ALOX12 (Homo sapiens) (UniProt P18054)
# Test: Primary qHTS assay for inhibitors of human arachidonate 12S-lipoxygenase (ALOX12): Round 2
# Conditions: purified 12hLO, xylenol orange hydroperoxide absorbance; activity change, negative = inhibition: at 108 µM (top of the series) unless noted
# Procedure, shortened: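 Purified human 12hLO (150 nM final) in 25 mM Hepes, 0.01% Triton X-100, pH 7.0 was preincubated 15 min at room temperature with compound. Then 40 uM arachidonic acid was added, 30 min. Hydroperoxide was read by Fe-XO absorbance ratio 573/405 nm.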
# On the % scale 0 is the no-effect control and ±100 the full control effect; potency means the concentration at half of the fitted maximal effect.
Structure (SMILES),Potency,"activity change, negative = inhibition"
CCC1=NOC(CNC(=O)c2ccc(OC3CCN(C(=O)COC)CC3)cc2)C1 (stereo not given),inactive,
COCCN(Cc1ccccc1)P(=O)(O)c1ccccc1OCC(=O)O,"inconclusive: 112 µM [inhibitor, single point]",
COC(=O)c1cc(-c2cc(OC)c(OC)c(OC)c2)nc2ccccc12,"inconclusive: 44.7 µM [inhibitor, partial curve, poor fit]",
CN1C(=O)c2cccn2CC1C(=O)Nc1ccc(N2CCOCC2)cc1 (stereo not given),inactive,
CCCCOc1cccc(-c2cc(C(=O)O)c3ccccc3n2)c1,"inconclusive: 50.1 µM [inhibitor, partial curve, poor fit]",
CC(=O)Nc1ccc(NC(=O)CSc2nc(N)c(NC(=O)c3ccco3)c(=O)[nH]2)cc1,"inconclusive: 39.8 µM [inhibitor, partial curve, poor fit]",
CCc1cc(C(=O)N2CC=C(c3ccccc3)CC2)sc1C,"inconclusive: 1.41 µM [inhibitor, full curve, poor fit]",
O=C1c2ccc(Cl)cc2S(=O)(=O)c2cccc(C(=O)N3CCN(c4ccc(Cl)cn4)CC3)c21,"inconclusive: 28.2 µM [inhibitor, partial curve, poor fit]",
Cc1noc2c(-c3cccnc3NC3CCC(O)CC3)cc(-c3ccccc3)nc12 (stereo not given),"inconclusive: 31.6 µM [inhibitor, full curve]",
Cc1cc(-n2nc(C)cc2C)nc(NS(=O)(=O)c2ccccc2)n1,"inconclusive: 39.8 µM [inhibitor, single point]",
CCN1CCN(S(=O)(=O)c2ccc(Cl)c(C(=O)N(C)Cc3ccccc3)c2)CC1,"inconclusive: 44.7 µM [inhibitor, partial curve, poor fit]",
C=CCSc1nnc(NC(=O)c2nc(SCC)ncc2Cl)s1,inactive,
CCn1ccc(C(=O)N2CCC(c3nn(C)c(=O)n3CCc3ccccc3)CC2)n1,inactive,
CCCCC[C@H](C)N1C[C@H](COCc2ccccc2)Oc2cc(N3CC[C@H](N(C)C)C3)ccc2S1(=O)=O,"inconclusive: 56.2 µM [inhibitor, partial curve, poor fit]",
Cc1ccc(S(=O)(=O)Nc2ccc(-c3nc4ccc(C)cc4s3)cc2)cc1,"inconclusive: 44.7 µM [inhibitor, partial curve, poor fit]",
COc1ccc(CN2CCCN(CC(=O)Nc3ccc4c(c3)OCCO4)S2(=O)=O)cc1,"inconclusive: 158 µM [inhibitor, partial curve, poor fit]",
Clc1cccc(OCCCn2ccnc2)c1,"inconclusive: 50.1 µM [inhibitor, partial curve, poor fit]",
O=C(c1ccc(Br)cc1)N1CCN(c2nc3ccccc3s2)CC1,inactive,
O=C1c2cc3c(cc2CCC1c1ccc2c(c1)OCO2)OCO3 (stereo not given),"inconclusive: 44.7 µM [inhibitor, partial curve, poor fit]",
CCN(c1ccccc1)S(=O)(=O)c1cc(C(=O)OC(C)C(=O)Nc2ccc3c(c2)OCCO3)ccc1C (stereo not given),"inconclusive: 89.1 µM [inhibitor, partial curve, poor fit]",
Cc1cc(C(=O)Nc2sccc2C(N)=O)c(C)o1,"inconclusive: 70.8 µM [inhibitor, partial curve, poor fit]",
COc1ccccc1C(=O)N1CCCN(Cc2ccc3c(c2)OCO3)c2ccccc21,"inconclusive: 89.1 µM [inhibitor, single point]",

Structure (SMILES),Potency,"activity change, negative = inhibition"
Cc1ccc(C(=O)N2CCN(c3nc4ccccc4o3)CC2)cc1,"inconclusive: 50.1 µM [inhibitor, single point]",
CCOCC(=O)N1c2ccccc2CC1c1noc(C(C)C)n1 (stereo not given),inactive,
CN(c1ncc(C(F)(F)F)cc1Cl)n1cc(C(N)=O)c2ccccc2c1=O,inactive,
COc1ccc(C2CC(=O)N(CC(=O)Nc3cccc(C)c3C)c3ccccc3S2)cc1OC (stereo not given),"inconclusive: 89.1 µM [inhibitor, partial curve, poor fit]",
COc1ccccc1-c1noc2nc(Nc3cccc(Cl)c3)ccc12,active: 28.2 µM,
O=C(Nc1cc(Br)ccc1F)c1nc[nH]c1C(=O)NCc1ccccc1,"inconclusive: 50.1 µM [inhibitor, partial curve, poor fit]",
CCN1CCN(S(=O)(=O)c2ccc(Cl)c(C(=O)Nc3nnc(C)s3)c2)CC1,"inconclusive: 89.1 µM [inhibitor, single point]",
CNc1ccccc1C(C)(C)c1cc(-c2ccco2)n[nH]1,"inconclusive: 39.8 µM [inhibitor, partial curve]",
CN1CCN(C2Cc3ccccc3Sc3ccc(Cl)cc32)CC1 (stereo not given),"inconclusive: 56.2 µM [inhibitor, partial curve, poor fit]",inactive: -12.7% [at 22.9 µM]
O[C@H]1CN(Cc2cccs2)[C@@H](c2ccc(Cl)cc2)C[C@@H]1n1cc(C2CC2)nn1,"inconclusive: 35.5 µM [inhibitor, single point]",
CCOc1ccccc1N(CC(=O)Nc1ccc(OC)c(OC)c1)S(=O)(=O)c1ccccc1,inactive,
Cn1c(SCc2cc(=O)n3[nH]cc(C#N)c3n2)nnc1-c1ccc(Cl)cc1,"inconclusive: 50.1 µM [inhibitor, single point]",
CC(=O)N1CCN(S(=O)(=O)c2cccc(C(=O)OCC(=O)Nc3c(Cl)cccc3C(F)(F)F)c2)CC1,"inconclusive: 50.1 µM [inhibitor, single point]",
Cc1cc(C(=O)CSc2nc3ccc(Cl)cc3[nH]2)c(C)n1Cc1ccco1,"inconclusive: 50.1 µM [inhibitor, partial curve, poor fit]",
CCOC(=O)c1cc(-c2ccc(C)cc2)n(CC(=O)NCc2ccco2)c1C,inactive,
CCOC(=O)c1oc2ccccc2c1COC(=O)CNC(=O)c1ccccc1OC,"inconclusive: 8.91 µM [inhibitor, partial curve, poor fit]",
O=C1c2cc(N3CCOCC3)nc(-c3cccnc3)c2CN1c1ccccc1,inactive,
Cc1ccccc1/C(=N\S(=O)(=O)c1ccc(Br)cc1)Nc1ccccc1,"inconclusive: 44.7 µM [inhibitor, partial curve, poor fit]",
COc1cc(C(C(=O)NC2CCCC2)N(C(=O)c2snc(C(N)=O)c2N)c2ccccc2)cc(OC)c1OC (stereo not given),"inconclusive: 0.251 µM [inhibitor, full curve, poor fit]",
O=C(CN1CC2CC(C1)[C@H]1CCCC(=O)N1C2)N1CCN(c2ccc(Cl)cc2)CC1 (stereo not given in full),"inconclusive: 3.16 µM [inhibitor, full curve, poor fit]",
O=C(O)C1CC(c2ccccc2F)=NO1 (stereo not given),"inconclusive: 79.4 µM [inhibitor, single point]",
CC(=O)OCC(OC(C)=O)C(OC(C)=O)C(OC(C)=O)C(=O)Nc1ccccc1C (stereo not given),inactive,

Structure (SMILES),Potency,"activity change, negative = inhibition"
CCOc1ccc(CSC(CC(=O)O)C(=O)O)cc1 (stereo not given),"inconclusive: 35.5 µM [inhibitor, partial curve, poor fit]",
COc1ccccc1CC(=O)N1CCCc2ncc(C(=O)N(C)Cc3ccccc3)cc21,"inconclusive: 126 µM [inhibitor, partial curve, poor fit]",
Cc1nn(C)c2c1c(C(F)(F)F)cc(=O)n2CC(=O)N1CCC(C)CC1,,inconclusive: -30.7% [inhibitor]
CCN(Cc1cccc2cnccc12)CC1CCCN(CCc2cccc(F)c2)C1 (stereo not given),inactive,
CSc1cccc(NC(=O)CSc2ccccc2)c1,"inconclusive: 15.8 µM [inhibitor, partial curve, poor fit]",
Cc1ccc(NC(=S)Nc2ncccc2C)c(C)c1,active: 8.91 µM,
O=C(Nc1ccc(CC(=O)N2CCOCC2)cc1)c1cc(Cl)ccc1Cl,inactive,
CCc1ccc(C(=O)NC2=NC(c3ccccc3F)CC(=O)N2)cc1 (stereo not given),"inconclusive: 112 µM [inhibitor, partial curve, poor fit]",
CCCCN1C(=O)/C(=c2\sc3nc(=O)c(-c4ccccc4)nn3c2=O)c2ccccc21,"inconclusive: 28.2 µM [inhibitor, single point]",
N#C/C(Cn1c[n+](NC(=O)Nc2ccccc2)cn1)=N/O,"inconclusive: 6.31 µM [inhibitor, full curve]",
CC(C)Oc1ccccc1OCCN(C)C,"inconclusive: 1.41 µM [inhibitor, full curve]",
CCOc1ccc(S(=O)(=O)Nc2ccc3c(c2)n(C)c(=O)n3C)cc1,inactive,
CC(=O)Nc1ccc(N2C(=O)CC(Sc3nc4ccccc4s3)C2=O)cc1 (stereo not given),inactive,
CCOCCCNCc1cccc(Cl)c1,"inconclusive: 0.398 µM [inhibitor, full curve, poor fit]",
CCc1cc(=O)oc2cc(OCC(=O)N(C)C)ccc12,"inconclusive: 126 µM [inhibitor, single point]",
C/C(=N\Nc1ccc(C)c(Cl)c1)c1ccncc1,active: 44.7 µM,
CCOc1ccc2nc(NC(=O)c3cc(=O)c4ccccc4o3)sc2c1,"inconclusive: 56.2 µM [inhibitor, partial curve, poor fit]",
Cc1c(CC(=O)NCc2ccc(Cl)cc2)c(=O)oc2c(C)c(O)ccc12,"inconclusive: 63.1 µM [inhibitor, partial curve, poor fit]",
CCOc1ccc(NC(=O)CC2C(=O)NCCN2C(=O)Nc2ccccc2)cc1 (stereo not given),"inconclusive: 141 µM [inhibitor, single point]",
N#C/C(=C/c1ccc(-c2ccc(Br)cc2)o1)C(=O)NC1CCCCC1,"inconclusive: 63.1 µM [inhibitor, partial curve, poor fit]",

# Part of the list above, reformatted.
Structure (SMILES) | Potency | activity change, negative = inhibition
CC(C)Oc1ccccc1OCCN(C)C | inconclusive: 1.41 µM [inhibitor, full curve] | 
CCOc1ccc(S(=O)(=O)Nc2ccc3c(c2)n(C)c(=O)n3C)cc1 | inactive | 
CC(=O)Nc1ccc(N2C(=O)CC(Sc3nc4ccccc4s3)C2=O)cc1 (stereo not given) | inactive | 
CCOCCCNCc1cccc(Cl)c1 | inconclusive: 0.398 µM [inhibitor, full curve, poor fit] | 
CCc1cc(=O)oc2cc(OCC(=O)N(C)C)ccc12 | inconclusive: 126 µM [inhibitor, single point] | 
